Our source for the T/C and survivor count values is PubChem BioAssay AID328 (DTP/NCI, 2004).

The list shows only some results of the screen, not a fair sample: it is rich in T/C values a quarter to a half above the control, in often repeated tests (any T/C) and in doses without a T/C. Other doses and runs of a compound stand elsewhere. T/C: endpoint of the treated group in % of that of the vehicle group. Some entries give survivors of the animals treated and no T/C: the source files T/C as zero there, which appears to mark a toxic dose or a test without result, not a measured value. Some survivor counts are full or nearly so, which does not show that the dose was tolerated: the source hardly ever lists a survival T/C far under the control, and the zero likely stands for such cases as well. Survivors were counted at the toxicity check, usually on the fifth day, unless a day is given; later deaths do not show. Schedule codes are those of the source, read here as Q, the interval in days (D) or hours (H), X, the number of doses. Where survival is the endpoint, this PubChem deposit counts one and a half times the control or more as active, and values a quarter to a half above the control carry no call in these data; other NCI protocols may use other cut-offs. Some T/C values carry the count of animals alive at the toxicity check (mostly the fifth day); where none is given, no animal had died by that day.

This experiment deals with BDF1 mice, P388 leukemia ip, median survival T/C. The experiment can be described thus: NCI In Vivo Anticancer Drug Screen. Data for tumor model P388 Leukemia (intraperitoneal) in B6D2F1 (BDF1) mice. The settings on record: T/C endpoint: median survival time, higher T/C = longer survival. In a few lines: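 Compound-treated tumour-bearing mice were compared with vehicle-treated controls. Survival was recorded, and the value is the treated-group measurement divided by the control-group measurement (T/C).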

The mark [1] stands for this setting: dose: 100.0 mg/kg/injection, schedule: Q01DX009 (ip), vehicle: Klucel (hydroxypropylcellulose) (HPC).
The mark [2] stands for this setting: dose: 200.0 mg/kg/injection, schedule: Q01DX009 (ip), vehicle: Klucel (hydroxypropylcellulose) (HPC).
[3] abbreviates: dose: 400.0 mg/kg/injection, schedule: Q04DX003 (ip), vehicle: saline.
Setting [4] is: dose: 200.0 mg/kg/injection, schedule: Q01DX009 (ip), vehicle: saline with Tween-80.

In the case of `NC(CSC(c1ccccc1)(c1ccccc1)c1ccc(F)cc1)C(=O)O` (configuration not stated), the T/C runs as follows: (dose: 3.13 mg/kg/injection, schedule: Q01DX009 (ip), vehicle: Klucel (hydroxypropylcellulose) (HPC)) 130 % of control; (dose: 6.25 mg/kg/injection, schedule: Q01DX009 (ip), vehicle: Klucel (hydroxypropylcellulose) (HPC)) 130 % of control; (dose: 6.6 mg/kg/injection, schedule: Q01DX009 (ip), vehicle: Klucel (hydroxypropylcellulose) (HPC)) 131 % of control; (dose: 9.9 mg/kg/injection, schedule: Q01DX009 (ip), vehicle: Klucel (hydroxypropylcellulose) (HPC)) 127 % of control; (dose: 15.0 mg/kg/injection, schedule: Q01DX009 (ip), vehicle: Klucel (hydroxypropylcellulose) (HPC)) 144 % of control; (dose: 22.0 mg/kg/injection, schedule: Q04DX003 (ip), vehicle: Klucel (hydroxypropylcellulose) (HPC)) 127 % of control. Besides, the T/C is, setting by setting: (dose: 33.0 mg/kg/injection, schedule: Q04DX003 (ip), vehicle: Klucel (hydroxypropylcellulose) (HPC)) 145 % of control [5 of 6 alive]; (dose: 50.0 mg/kg/injection, schedule: Q04DX003 (ip), vehicle: Klucel (hydroxypropylcellulose) (HPC)) 135 % of control. Besides, the survivor count is, setting by setting: under setting [1], 0 of 6; (dose: 132.0 mg/kg/injection, schedule: Q04DX003 (ip), vehicle: Klucel (hydroxypropylcellulose) (HPC)) 6 of 6; under setting [2], 0 of 6; (dose: 200.0 mg/kg/injection, schedule: Q04DX003 (ip), vehicle: Klucel (hydroxypropylcellulose) (HPC)) 6 of 6; (dose: 300.0 mg/kg/injection, schedule: Q04DX003 (ip), vehicle: Klucel (hydroxypropylcellulose) (HPC)) 6 of 6.
On to `CC[n+]1ccc(Nc2ccc(NC(=O)c3ccc(Nc4cc[n+](CC)c5ccc(N)cc45)cc3)cc2)cc1`, for which the T/C by setting is: (dose: 0.05 mg/kg/injection, schedule: Q01DX010 (ip), vehicle: saline) 130 % of control; (dose: 0.2 mg/kg/injection, schedule: Q01DX010 (ip), vehicle: saline) 145 % of control.
As to `CC(=O)OCC(C)OC(C)=O` (configuration not stated), under “dose: 400.0 mg/kg/injection, schedule: Q01DX009 (ip), vehicle: saline”, the survivor count was 6 of 6.
As to `CCCNC(=O)Nc1cc(Cl)ccc1OC`, for the setting “dose: 200.0 mg/kg/injection, schedule: Q04DX003 (ip), vehicle: saline with Tween-80”, the T/C is 131 % of control.
As to `Cc1ccc(C)c(Nc2cc(=O)[nH]c(=O)[nH]2)c1`, the survivor count (dose: 400.0 mg/kg/injection, schedule: Q01DX001 (ip), vehicle: Klucel (hydroxypropylcellulose) (HPC)) is on record as 2 of 6.
`COC(=O)C(C)C(C)=O` (configuration not stated): the survivor count by setting is: (dose: 100.0 mg/kg/injection, schedule: Q04DX003 (sc), vehicle: olive oil, sesame oil, peanut oil) 6 of 6; (dose: 200.0 mg/kg/injection, schedule: Q04DX003 (sc), vehicle: olive oil, sesame oil, peanut oil) 6 of 6.
For `COc1c(C)c2c(c(O)c1C/C=C(\C)CCC(=O)O)C(=O)OC2`, the T/C (dose: 400.0 mg/kg/injection, schedule: Q01DX010 (ip), vehicle: saline) is 136 % of control.
Consider `C=C1C(=O)OC(/C=C(\C)CO)C1C(C/C(C)=C/CO)OC(=O)/C(C)=C\C` (configuration not stated), for which the survivor count (dose: 400.0 mg/kg/injection, schedule: Q01DX009 (ip), vehicle: Klucel (hydroxypropylcellulose) (HPC)) is 0 of 6.
As to `CCc1c2cc(OC)c(OC)cc2cc2c3cc(OC)c(OC)cc3cc[n+]12` (tested in a mixture with another compound), the T/C runs as follows: (dose: 22.0 mg/kg/injection, schedule: Q04DX003 (ip), vehicle: saline) 127 % of control; (dose: 33.0 mg/kg/injection, schedule: Q04DX003 (ip), vehicle: saline) 145 % of control; (dose: 44.0 mg/kg/injection, schedule: Q04DX003 (ip), vehicle: saline) 133 % of control; (dose: 66.0 mg/kg/injection, schedule: Q04DX003 (ip), vehicle: saline) 141 % of control.
As for `OCCc1ccccc1`, where the note is “dose: 400.0 mg/kg/injection, schedule: Q01DX009 (ip), vehicle: saline sonified”, the survivor count is reported as 2 of 6.
With `COc1ccc2c(c1)N(C)CCCC2=O`, the survivor count by setting is: (dose: 300.0 mg/kg/injection, schedule: Q01DX009 (ip), vehicle: saline) 2 of 6; under setting [3], 2 of 6.
`C[C@]12CC[C@H]3[C@@H](CCC4=CC(=O)CC[C@@]43C)[C@@H]1CC[C@@H]2OC(=O)Cc1ccc(N(CCCl)CCCl)cc1`: the T/C by setting is: under setting [4], 131 % of control; (dose: 256.0 mg/kg/injection, schedule: Q01DX009 (ip), vehicle: Klucel (hydroxypropylcellulose) (HPC)) 144 % of control; (dose: 512.0 mg/kg/injection, schedule: Q01DX009 (ip), vehicle: Klucel (hydroxypropylcellulose) (HPC)) 134 % of control.
In the case of `CN(C)CCCCc1cn(-c2ccccc2)c2ccccc12`, the T/C is, setting by setting: (dose: 25.0 mg/kg/injection, schedule: Q01DX009 (ip), vehicle: saline) 130 % of control; (dose: 50.0 mg/kg/injection, schedule: Q01DX009 (ip), vehicle: saline) 130 % of control. Further, the survivor count (dose: 75.0 mg/kg/injection, schedule: Q01DX009 (ip), vehicle: saline) was 2 of 6.
On to `C=C(C)C1CCC2=CC(CC3(C)OC3C3=CC(C(=O)OC)=C(C1)O3)OC2=O` (configuration not stated), for which the survivor count under setting [1] is 6 of 6 and the survivor count under setting [2] is 6 of 6.
As for `CCSSC(=Nc1ccccc1)OCC(C)C`, the T/C was 128 % of control (dose: 100.0 mg/kg/injection, schedule: Q01DX009 (ip), vehicle: other) and 144 % of control (dose: 200.0 mg/kg/injection, schedule: Q01DX009 (ip), vehicle: other).
Regarding `O=C(O)c1ccc(-c2ccccc2)cc1`, the survivor count (dose: 400.0 mg/kg/injection, schedule: Q04DX003 (ip), vehicle: saline with Tween-80) was 2 of 6.
Take `CCCCNC(C)(C)C(SS)c1ccc(Cl)cc1` (configuration not stated): the survivor count (dose: 400.0 mg/kg/injection, schedule: Q04DX003 (ip), vehicle: Klucel (hydroxypropylcellulose) (HPC)) was 1 of 6.
With `CN(C)c1ccc2cc3ccc(N(C)C)cc3nc2c1`, the survivor count (dose: 100.0 mg/kg/injection, schedule: Q04DX003 (ip), vehicle: water) was 0 of 4.
In the case of `CCOc1cc(Cl)c(N)c(Cl)c1`, the survivor count (dose: 400.0 mg/kg/injection, schedule: Q01DX001 (ip), vehicle: saline with Tween-80) was 1 of 6.
Take `Oc1c(Cl)cc(Cl)c2cccnc12`: the survivor count (dose: 100.0 mg/kg/injection, schedule: Q01DX010 (ip), vehicle: carboxymethylcellulose (CMC)) is 2 of 6.
In the case of `CCS(=O)(=O)OCCCCOS(=O)(=O)CC`, the T/C (dose: 50.0 mg/kg/injection, schedule: Q01DX009 (ip), vehicle: saline with Tween-80) was 131 % of control [5 of 6 alive]. Further, the survivor count under setting [4] is 0 of 6.
As for `O=c1[nH]cnc2c1ncn2C1OC(CF)C(O)C1O` (configuration not stated), the survivor count is reported as 6 of 6 (dose: 100.0 mg/kg/injection, schedule: Q04DX003 (ip), vehicle: saline); 6 of 6 (dose: 200.0 mg/kg/injection, schedule: Q04DX003 (ip), vehicle: saline); 6 of 6 under setting [3].
Turning to `O=[N+]([O-])c1ccc(S(=O)c2ccc([N+](=O)[O-])c3nonc23)cc1` (configuration not stated), the survivor count (dose: 60.0 mg/kg/injection, schedule: Q01DX009 (ip), vehicle: saline with Tween-80) is listed as 5 of 7.
With `CCCC(=O)NC1=C(N2CC2)C(=O)C(NC(=O)CCC)=C(N2CC2)C1=O`, the T/C (dose: 1.0 mg/kg/injection, schedule: Q01DX009 (ip), vehicle: saline) was 138 % of control; the T/C (dose: 1.25 mg/kg/injection, schedule: Q04DX003 (ip), vehicle: saline with Tween-80) is 137 % of control; the T/C (dose: 2.0 mg/kg/injection, schedule: Q01DX009 (ip), vehicle: saline) was 142 % of control. Besides, the survivor count was 6 of 6 (dose: 4.0 mg/kg/injection, schedule: Q01DX009 (ip), vehicle: saline) and 6 of 6 (dose: 8.0 mg/kg/injection, schedule: Q01DX009 (ip), vehicle: saline).
Turning to `O=C(Nc1nncs1)c1cccs1`, the T/C (dose: 200.0 mg/kg/injection, schedule: Q04DX002 (ip), vehicle: saline with Tween-80) is 134 % of control and the T/C (dose: 400.0 mg/kg/injection, schedule: Q04DX002 (ip), vehicle: saline with Tween-80) is 145 % of control.
